Laboratory results reported in US10344065B2 (National Cheng Kung University, priority 2017, dated 2019).
Plain letter strings leave the end groups untold.

Assay: peptide made by a vendor
Details: whole synthesis

For “MSSRRSSSCKYCEQDFRAHTQKNAAFPFLAN (MSSRRSSSCKYCEQDFRAHTQKNAATPFLAN; Synthesized pepetide)”, the “purity (crude or final not stated)” value was “˜85% pure”.
